# Source: PubChem BioAssay AID244 (DTP/NCI, 2004)
# The list is a part of this screen's results and no random one: it is rich in T/C values a quarter to a half above the control, in often repeated tests (any T/C) and in doses without a T/C. Other doses and runs of a compound stand elsewhere. T/C gives the treated animals as a percentage of the vehicle group. Some doses have a count of surviving animals in place of a T/C: the source holds a T/C of zero for them, seemingly a mark for toxic or unscored doses. Some doses without a T/C left all or most animals alive at the check, yet need not have been tolerated: survival well below the control is almost never listed, so the zero probably covers shortened survival too. Survivors were counted at the toxicity check, usually on the fifth day, unless a day is given; later deaths do not show. Schedule codes are those of the source, taken here to give the interval after Q, in days (D) or hours (H), and the number of doses after X. Signs of the kind (2×) say how often a value occurs here. Some structures stand for samples that the source files as different forms (salt, stereo form or complex); doses refer to the form tested. Some entries were tested several times; the values are given in rising order. For survival time, the PubChem record calls one and a half times the control and up active, and a quarter to a half above the control has no call in these data; cut-offs in other NCI protocols can differ. Some T/C values are followed by the survivors on the day toxicity was checked, most often the fifth; where none is given, no animal had died by that day. *1 amine or outer side, *2 acyl side, *3 side chain or, on linkers, in order; H or OH if unused. Where a SMILES comes first, the peptide text is derived from it. Bridges are numbered along the chain shown (N, C = ends). Roman numbers before positions name the chains, in order. [ ]: non-standard residue; d: D form. Actinocin(9to1) = Cc1c2oc3c(C)ccc(C(=O)[*:1])c3nc-2c(C(=O)[*:2])c(N)c1=O; aThr = C[C@H](O)[C@H](N)C(=O)O; NMeV = CN[C@H](C(=O)O)C(C)C; Sar = CNCC(=O)O
# System: CD2F1 mice, Lymphoma 8 ip, survival T/C
# Experiment: NCI In Vivo Anticancer Drug Screen. Data for tumor model Lymphoma 8 (intraperitoneal) in CD2F1 (CDF1) mice
# Settings: higher T/C = longer survival
# Protocol: The antitumor activity of compounds was measured in mice bearing transplantable tumors. Survival or tumor size were measured and the results are expressed as the measurement made in the treated group (T) divided by the measurement made in the vehicle treated control group (C). The tumor model used in this assay is Lymphoma 8 (intraperitoneal) in CD2F1 (CDF1) mice
# [1] = T/C endpoint: median survival time, dose: 800.0 mg/kg/injection, schedule: Q01DX005 (ip), vehicle: water
smiles,measurement,setting,value
O=C1NC(O)CCN1C1OC(CO)C(O)C1O (stereo unspecified),survivor count,"T/C endpoint: median survival time, dose: 10.0 mg/kg/injection, schedule: Q04DX008 (ip), vehicle: saline",6 of 10
same,survivor count,"T/C endpoint: median survival time, dose: 300.0 mg/kg/injection, schedule: Q04DX008 (ip), vehicle: saline",6 of 10
same,survivor count,"T/C endpoint: median survival time, dose: 1000.0 mg/kg/injection, schedule: Q04DX008 (ip), vehicle: saline",6 of 10
N=[N+]=CC(=O)OCC(N)C(=O)O (stereo unspecified),T/C,"T/C endpoint: median survival time, dose: 1.0 mg/kg/injection, schedule: Q14DX016 (ip), vehicle: saline",139 % of control
same,T/C,"T/C endpoint: median survival time, dose: 4.0 mg/kg/injection, schedule: Q14DX016 (ip), vehicle: saline",142 % of control
same,survivor count,"T/C endpoint: median survival time, dose: 8.0 mg/kg/injection, schedule: Q14DX016 (ip), vehicle: saline",6 of 6
same,survivor count,"T/C endpoint: median survival time, dose: 16.0 mg/kg/injection, schedule: Q14DX016 (ip), vehicle: saline",6 of 6
NC(C/[N+]([O-])=N/O)C(=O)O (stereo unspecified),T/C,"T/C endpoint: median survival time, dose: 8.78 mg/kg/injection, schedule: Q01DX010 (ip), vehicle: alkali diluted with saline",144 % of control
same,T/C,"T/C endpoint: median survival time, dose: 50.0 mg/kg/injection, schedule: Q01DX009 (ip), vehicle: saline + alcohol",132 % of control
same,survivor count,"T/C endpoint: median survival time, dose: 200.0 mg/kg/injection, schedule: Q01DX009 (ip), vehicle: other",5 of 6
same,survivor count,"T/C endpoint: median survival time, dose: 200.0 mg/kg/injection, schedule: Q01DX009 (ip), vehicle: saline + alcohol",6 of 6
same,survivor count,"T/C endpoint: median survival time, dose: 200.0 mg/kg/injection, schedule: Q01DX009 (ip), vehicle: water",5 of 6
same,survivor count,"T/C endpoint: median survival time, dose: 400.0 mg/kg/injection, schedule: Q01DX009 (ip), vehicle: other",3 of 6
same,survivor count,"T/C endpoint: median survival time, dose: 400.0 mg/kg/injection, schedule: Q01DX009 (ip), vehicle: saline + alcohol",4 of 6
same,survivor count,"T/C endpoint: median survival time, dose: 400.0 mg/kg/injection, schedule: Q01DX009 (ip), vehicle: water",6 of 6
NC(C(=O)O)C(F)(F)C(=O)O (stereo unspecified),survivor count,"T/C endpoint: median survival time, dose: 50.0 mg/kg/injection, schedule: Q01DX009 (ip), vehicle: saline",1 of 3
same,survivor count,"T/C endpoint: median survival time, dose: 100.0 mg/kg/injection, schedule: Q01DX009 (ip), vehicle: saline",2 of 3
same,survivor count,"T/C endpoint: median survival time, dose: 200.0 mg/kg/injection, schedule: Q01DX009 (ip), vehicle: saline",0 of 3
O=C1C=C(C2OC(CO)C(O)C2O)C(=O)N1 (stereo unspecified),survivor count,"T/C endpoint: median survival time, dose: 8.0 mg/kg/injection, schedule: Q01DX005 (ip), vehicle: saline",6 of 6
same,survivor count,"T/C endpoint: median survival time, dose: 16.0 mg/kg/injection, schedule: Q01DX005 (ip), vehicle: saline",2 of 6
same,survivor count,"T/C endpoint: median survival time, dose: 16.0 mg/kg/injection, schedule: Q01DX010 (ip), vehicle: saline",4 of 6
same,survivor count,"T/C endpoint: median survival time, dose: 32.0 mg/kg/injection, schedule: Q01DX005 (ip), vehicle: saline",0 of 6
O=c1[nH]cc(F)c(=O)[nH]1,T/C,"T/C endpoint: median survival time, dose: 60.0 mg/kg/injection, schedule: Q04DX003 (ip), vehicle: saline",138 % of control
COc1cccc2c1C(=O)c1c(O)c3c(c(O)c1C2=O)C[C@@](O)(C(C)=O)C[C@@H]3OC1CC(N)C(O)C(C)O1 (stereo partly specified),T/C,"T/C endpoint: median survival time, dose: 5.0 mg/kg/injection, schedule: Q01DX005 (ip), vehicle: saline",127 % of control
same,survivor count,"T/C endpoint: median survival time, dose: 10.0 mg/kg/injection, schedule: Q01DX005 (ip), vehicle: saline",10 of 10
"Cc1c2oc3c(C)ccc(C(=O)N[C@@H]4C(=O)N[C@H](C(C)C)C(=O)N5CCC[C@H]5C(=O)N(C)CC(=O)N(C)[C@@H](C(C)C)C(=O)O[C@H]4C)c3nc-2c(C(=O)N[C@@H]2C(=O)N[C@H](C(C)C)C(=O)N3CCC[C@H]3C(=O)N(C)CC(=O)N(C)[C@@H](C(C)C)C(=O)O[C@H]2C)c(N)c1=O (I: [aThr][dV]P[Sar][NMeV] / II: [aThr][dV]P[Sar][NMeV]; ester I:1-I:C, II:1-II:C; linker I:N-II:N via Actinocin(9to1))",T/C,"T/C endpoint: median survival time, dose: 0.1 mg/kg/injection, schedule: Q01DX002 (ip), vehicle: saline",126 % of control
O=c1[nH]c(=O)n(C2CC(O)C(CO)O2)cc1F (stereo unspecified),T/C,"T/C endpoint: survival time, mean or median, dose: 40.0 mg/kg/injection, schedule: Q01DX010 (ip), vehicle: saline",127 % of control
N=[N+]=CC(=O)CCC(NC(=O)C(CCC(=O)C=[N+]=N)NC(=O)CCC(N)C(=O)O)C(=O)O (stereo unspecified),T/C,"T/C endpoint: median survival time, dose: 2.5 mg/kg/injection, schedule: Q04DX002 (ip), vehicle: saline, evaluated on day 60",130 % of control
same,T/C,"T/C endpoint: median survival time, dose: 2.5 mg/kg/injection, schedule: Q04DX002 (ip), vehicle: saline, run until all animals had died",138 % of control
same,T/C,"T/C endpoint: median survival time, dose: 5.0 mg/kg/injection, schedule: Q01DX006 (ip), vehicle: saline",125 % of control
same,T/C,"T/C endpoint: median survival time, dose: 5.0 mg/kg/injection, schedule: Q04DX002 (ip), vehicle: saline, evaluated on day 60",146 % of control
same,T/C,"T/C endpoint: median survival time, dose: 5.0 mg/kg/injection, schedule: Q04DX002 (ip), vehicle: saline, run until all animals had died",138 % of control
same,T/C,"T/C endpoint: median survival time, dose: 20.0 mg/kg/injection, schedule: Q01DX006 (ip), vehicle: saline",135 % of control
same,T/C,"T/C endpoint: median survival time, dose: 20.0 mg/kg/injection, schedule: Q04DX003 (ip), vehicle: saline",146 % of control
same,T/C,"T/C endpoint: median survival time, dose: 27.0 mg/kg/injection, schedule: Q04DX002 (ip), vehicle: saline",132 % of control
same,T/C,"T/C endpoint: median survival time, dose: 40.0 mg/kg/injection, schedule: Q01DX001 (ip), vehicle: saline",146 % of control [4 of 6 alive]
same,T/C,"T/C endpoint: median survival time, dose: 40.0 mg/kg/injection, schedule: Q01DX006 (ip), vehicle: saline",142 % of control
same,T/C,"T/C endpoint: median survival time, dose: 40.0 mg/kg/injection, schedule: Q04DX002 (ip), vehicle: saline",132 % of control
same,survivor count,"T/C endpoint: median survival time, dose: 60.0 mg/kg/injection, schedule: Q04DX002 (ip), vehicle: saline",6 of 6
same,survivor count,"T/C endpoint: median survival time, dose: 80.0 mg/kg/injection, schedule: Q01DX001 (ip), vehicle: saline",4 of 6
NC(CC(=O)O)C(=O)O (stereo unspecified),survivor count,"T/C endpoint: median survival time, dose: 400.0 mg/kg/injection, schedule: Q01DX005 (ip), vehicle: water",5 of 10
same,survivor count,[1],0 of 10
CC[C@]1(O)C[C@H]2CN(CCc3c([nH]c4ccccc34)[C@@](C(=O)OC)(c3cc4c(cc3OC)N(C=O)[C@H]3[C@@](O)(C(=O)OC)[C@H](OC(C)=O)[C@]5(CC)C=CCN6CC[C@]43[C@@H]65)C2)C1,T/C,"T/C endpoint: median survival time, dose: 0.25 mg/kg/injection, schedule: Q01DX005 (ip), vehicle: saline, evaluated on day 5",122 % of control
same,T/C,"T/C endpoint: median survival time, dose: 0.25 mg/kg/injection, schedule: Q01DX005 (ip), vehicle: saline, evaluated on day 30",116 % of control
same,T/C,"T/C endpoint: median survival time, dose: 0.25 mg/kg/injection, schedule: Q01DX005 (ip), vehicle: saline, evaluated on day 60",115 and 116 % of control
same,T/C,"T/C endpoint: median survival time, dose: 0.5 mg/kg/injection, schedule: Q01DX005 (ip), vehicle: saline",125 % of control
same,survivor count,"T/C endpoint: median survival time, dose: 1.0 mg/kg/injection, schedule: Q01DX005 (ip), vehicle: saline",6 of 6
NC(=O)OCC(N)C(=O)O (stereo unspecified),survivor count,"T/C endpoint: median survival time, dose: 200.0 mg/kg/injection, schedule: Q01DX005 (ip), vehicle: saline",10 of 10
CNC(=O)CC(N)C(=O)O (stereo unspecified),survivor count,"T/C endpoint: median survival time, dose: 1200.0 mg/kg/injection, schedule: Q01DX005 (ip), vehicle: saline",6 of 6
N[C@H](C(=O)O)[C@@H]1CC(Cl)=NO1,T/C,"T/C endpoint: median survival time, dose: 3.0 mg/kg/injection, schedule: Q01DX009 (ip), vehicle: saline",133 % of control
NC(CC(=O)NO)C(=O)O (stereo unspecified),T/C,[1],125 % of control
COc1cc2c(c3c1c(=O)c1ccccc1n3C)C=CC(C)(C)O2,survivor count,"T/C endpoint: median survival time, dose: 200.0 mg/kg/injection, schedule: Q01DX009 (ip), vehicle: Klucel (hydroxypropylcellulose) (HPC)",0 of 10
same,survivor count,"T/C endpoint: median survival time, dose: 400.0 mg/kg/injection, schedule: Q01DX009 (ip), vehicle: Klucel (hydroxypropylcellulose) (HPC)",0 of 10
Nc1nc(=S)c2ncn(C3OC(CO)C(O)C3O)c2[nH]1 (stereo unspecified),T/C,"T/C endpoint: survival time, mean or median, dose: 2.0 mg/kg/injection, schedule: Q01DX010 (ip), vehicle: saline",136 % of control
CC(=O)Nc1c(Cl)cc2c(c1Cl)Cc1cc([N+](=O)[O-])ccc1-2,survivor count,"T/C endpoint: survival time, mean or median, dose: 7.8 mg/kg/injection, schedule: Q01DX010 (ip), vehicle: saline",8 of 8
same,survivor count,"T/C endpoint: survival time, mean or median, dose: 15.6 mg/kg/injection, schedule: Q01DX010 (ip), vehicle: saline",8 of 8
same,survivor count,"T/C endpoint: survival time, mean or median, dose: 31.3 mg/kg/injection, schedule: Q01DX010 (ip), vehicle: saline",8 of 8
O=C1C=CC(=O)N1,survivor count,"T/C endpoint: median survival time, dose: 4.0 mg/kg/injection, schedule: Q01DX009 (ip), vehicle: saline",6 of 6 (2×)
same,survivor count,"T/C endpoint: median survival time, dose: 8.0 mg/kg/injection, schedule: Q01DX009 (ip), vehicle: saline",0 of 6 and 1 of 6
S=c1nc[nH]c2nc[nH]c12,survivor count,"T/C endpoint: median survival time, dose: 135.0 mg/kg/injection, schedule: Q04DX002 (ip), vehicle: saline",6 of 6
CC/C(=C(/CC)c1ccc(O)cc1)c1ccc(O)cc1,survivor count,"T/C endpoint: survival time, mean or median, dose: 12.5 mg/kg/injection, schedule: Q01DX010 (sc), vehicle: steroid suspending solution",6 of 6
